{"source": "patent US20260027116A1", "about": "“Methods of Treating Chronic Graft-Versus-Host Disease Following Allogeneic Hematopoietic Stem Cell Transplantation” (Kadmon Corporation, LLC, priority 2022, published 2026)", "type_in_all_cases": "in vivo, human", "key": {"[1]": {"tested_on": "lung function", "assay": "Example 1: percent predicted HGB corrected DLco change from baseline", "conditions": "mean (SD)", "description": "Change From Baseline in Percent Predicted Hemoglobin (HGB) Corrected Diffusing Capacity of Lung for Carbon Monoxide (DLco) at Each Specified Time Points. DLco is a measurement of the ability of the lungs to transfer gases from the air to the blood. Change from baseline in diffusing capacity of the lung for carbon monoxide (percent predicted hemoglobin level corrected) was reported for this measure. Baseline value was defined as valid and last non-missing value obtained within 28 days prior to participant receiving first study medication. EOT visit was performed within 3 days after the participant's last dose of study drug. […] Analysis was performed on mITT population. Here, ‘number analyzed’=participants with available data for each specified category. Here, ‘O’ in the number analyzed field signifies that none of the participants were available for the analysis at the specified time points."}, "[2]": {"tested_on": "cGVHD symptom burden", "assay": "Example 1: Lee Symptom Scale (LSS) score", "experimental": "Lee Symptom Scale (LSS) summary score measures the effect on patients' functioning and well-being. The Lee Symptom Scale is a 30-item scale developed to measure the symptoms of cGVHD and is described in Lec S J, Cook E F, Soiffer R, Antin J H. Development and validation of a scale to measure symptoms of chronic graft-versushost disease. Biol Blood Marrow Transplant 2002; 8:444-452.\nAll responses were assessed by the investigators.\nChange From Baseline in Overall Score on Lee cGvHD Symptom Scale at Specified Time Points. Lee cGVHD symptom scale, a patient-reported symptom scale used to measure symptom burden and has 7 subscales (Skin, Eyes and Mouth, Breathing, Eating and Digestion, Muscles and Joints, Energy, and Mental and Emotional) with ratings as follows: 0—Not at all, 1—Slightly, 2—Moderately, 3—Quite a bit, 4—Extremely, with lower values representing better outcome. Score for each subscale was normalized to a score ranged from 0 to 100, where higher score=worse symptoms. An overall score was calculated as average of these 7 subscales. EOT visit was performed within 3 days after the participant's last dose of study drug. Baseline value was defined as valid and last non-missing value obtained within 28 days prior to participant receiving first study medication. […] Analysis was performed on mITT population. Here, ‘number analyzed’=participants with available data for each specified category. Here, ‘0’ in the number analyzed field signifies that none of the participants were available for the analysis at the specified time points."}, "[3]": {"tested_on": "lung function", "assay": "Example 1: percent predicted FEV1 change from baseline", "experimental": "Change From Baseline in Percent Predicted Forced Expiratory Volume in 1 Second (FEV1) at Each Specified Time Points. FEV1 was the volume of air exhaled from the lungs in the first second of a forced expiration as measured by spirometer. Baseline value was defined as valid and last non-missing value obtained within 28 days prior to participant receiving first study medication. EOT visit was performed within 3 days after the participant's last dose of study drug. […] Analysis was performed on mITT population. Here, ‘number analyzed’=participants with available data for each specified category. Here, ‘O’ in the number analyzed field signifies that none of the participants were available for the analysis at the specified time points."}, "[4]": {"conditions": "Cohort 1: 200 mg QD, Cycle 21, Day 1"}, "[5]": {"conditions": "Cohort 1: 200 mg QD, Cycle 23, Day 1"}, "[6]": {"conditions": "Cohort 1: 200 mg QD, Cycle 24, Day 1"}, "[7]": {"conditions": "Cohort 2: 200 mg BID, Cycle 20, Day 1"}}, "note": "This continues a long series; more values of the same kind are listed elsewhere."}
{"smiles": "CC(C)NC(=O)COc1cccc(-c2nc(Nc3ccc4[nH]ncc4c3)c3ccccc3n2)c1", "note": "[Belumosudil, 2-{3-[4-(1H-indazol-5-ylamino)-2-quinazolinyl]phenoxy}-N-(propan-2-yl) acetamide]", "values": [{"measurement": "Change From Baseline in Percent Predicted Hemoglobin (HGB) Corrected Diffusing Capacity of Lung for Carbon Monoxide (DLco)", "setting": "[1]; Cohort 1: 200 mg QD, Cycle 47, Day 1", "value": "9.660 (—) Percent Predicted HGB Corrected DLco"}, {"measurement": "Change From Baseline in Percent Predicted Hemoglobin (HGB) Corrected Diffusing Capacity of Lung for Carbon Monoxide (DLco)", "setting": "[1]; Cohort 3: 400 mg QD, Cycle 43, Day 1", "value": "16.351 (—) Percent Predicted HGB Corrected DLco"}, {"measurement": "Change From Baseline in Overall Score on Lee cGvHD Symptom Scale, Mean (Standard Deviation)", "setting": "[2]; Cohort 1: 200 mg QD, Cycle 17, Day 1", "value": "−4.1 (17.2) score on a scale"}, {"measurement": "Change From Baseline in Overall Score on Lee cGvHD Symptom Scale, Mean (Standard Deviation)", "setting": "[2]; Cohort 1: 200 mg QD, Cycle 18, Day 1", "value": "−2.3 (17.6) score on a scale"}, {"measurement": "Change From Baseline in Overall Score on Lee cGvHD Symptom Scale, Mean (Standard Deviation)", "setting": "[2]; Cohort 1: 200 mg QD, Cycle 19, Day 1", "value": "−7.7 (19.6) score on a scale"}, {"measurement": "Change From Baseline in Overall Score on Lee cGvHD Symptom Scale, Mean (Standard Deviation)", "setting": "[2]; Cohort 1: 200 mg QD, Cycle 20, Day 1", "value": "−4.6 (22.0) score on a scale"}, {"measurement": "Change From Baseline in Overall Score on Lee cGvHD Symptom Scale, Mean (Standard Deviation)", "setting": "[2]; [4]", "value": "−3.1 (19.1) score on a scale"}, {"measurement": "Change From Baseline in Overall Score on Lee cGvHD Symptom Scale, Mean (Standard Deviation)", "setting": "[2]; Cohort 1: 200 mg QD, Cycle 22, Day 1", "value": "−4.1 (18.9) score on a scale"}, {"measurement": "Change From Baseline in Overall Score on Lee cGvHD Symptom Scale, Mean (Standard Deviation)", "setting": "[2]; [5]", "value": "−4.1 (19.1) score on a scale"}, {"measurement": "Change From Baseline in Overall Score on Lee cGvHD Symptom Scale, Mean (Standard Deviation)", "setting": "[2]; [6]", "value": "−6.7 (21.0) score on a scale"}, {"measurement": "Change From Baseline in Overall Score on Lee cGvHD Symptom Scale, Mean (Standard Deviation)", "setting": "[2]; Cohort 1: 200 mg QD, Cycle 25, Day 1", "value": "2.2 (18.8) score on a scale"}, {"measurement": "Change From Baseline in Overall Score on Lee cGvHD Symptom Scale, Mean (Standard Deviation)", "setting": "[2]; Cohort 1: 200 mg QD, Cycle 26, Day 1", "value": "1.3 (14.3) score on a scale"}, {"measurement": "Change From Baseline in Overall Score on Lee cGvHD Symptom Scale, Mean (Standard Deviation)", "setting": "[2]; Cohort 2: 200 mg BID, Cycle 17, Day 1", "value": "−10.1 (5.5) score on a scale"}, {"measurement": "Change From Baseline in Overall Score on Lee cGvHD Symptom Scale, Mean (Standard Deviation)", "setting": "[2]; Cohort 2: 200 mg BID, Cycle 18, Day 1", "value": "−11.5 (8.4) score on a scale"}, {"measurement": "Change From Baseline in Overall Score on Lee cGvHD Symptom Scale, Mean (Standard Deviation)", "setting": "[2]; Cohort 2: 200 mg BID, Cycle 19, Day 1", "value": "−9.9 (7.8) score on a scale"}, {"measurement": "Change From Baseline in Overall Score on Lee cGvHD Symptom Scale, Mean (Standard Deviation)", "setting": "[2]; [7]", "value": "−9.0 (10.3) score on a scale"}, {"measurement": "Change From Baseline in Overall Score on Lee cGvHD Symptom Scale, Mean (Standard Deviation)", "setting": "[2]; Cohort 2: 200 mg BID, Cycle 21, Day 1", "value": "−7.5 (10.7) score on a scale"}, {"measurement": "Change From Baseline in Overall Score on Lee cGvHD Symptom Scale, Mean (Standard Deviation)", "setting": "[2]; Cohort 2: 200 mg BID, Cycle 22, Day 1", "value": "−14.5 (9.1) score on a scale"}, {"measurement": "Change From Baseline in Overall Score on Lee cGvHD Symptom Scale, Mean (Standard Deviation)", "setting": "[2]; Cohort 2: 200 mg BID, Cycle 23, Day 1", "value": "−11.6 (9.3) score on a scale"}, {"measurement": "Change From Baseline in Overall Score on Lee cGvHD Symptom Scale, Mean (Standard Deviation)", "setting": "[2]; Cohort 2: 200 mg BID, Cycle 24, Day 1", "value": "−18.7 (—) score on a scale"}, {"measurement": "Change From Baseline in Overall Score on Lee cGvHD Symptom Scale, Mean (Standard Deviation)", "setting": "[2]; Cohort 2: 200 mg BID, Cycle 25, Day 1", "value": "−12.4 (8.2) score on a scale"}, {"measurement": "Change From Baseline in Overall Score on Lee cGvHD Symptom Scale, Mean (Standard Deviation)", "setting": "[2]; Cohort 3: 400 mg QD, Cycle 17, Day 1", "value": "0.0 (12.5) score on a scale"}, {"measurement": "Change From Baseline in Overall Score on Lee cGvHD Symptom Scale, Mean (Standard Deviation)", "setting": "[2]; Cohort 3: 400 mg QD, Cycle 18, Day 1", "value": "−2.3 (7.8) score on a scale"}, {"measurement": "Change From Baseline in Overall Score on Lee cGvHD Symptom Scale, Mean (Standard Deviation)", "setting": "[2]; Cohort 3: 400 mg QD, Cycle 19, Day 1", "value": "−6.6 (9.9) score on a scale"}, {"measurement": "Change From Baseline in Overall Score on Lee cGvHD Symptom Scale, Mean (Standard Deviation)", "setting": "[2]; Cohort 3: 400 mg QD, Cycle 20, Day 1", "value": "−2.8 (5.6) score on a scale"}, {"measurement": "Change From Baseline in Overall Score on Lee cGvHD Symptom Scale, Mean (Standard Deviation)", "setting": "[2]; Cohort 3: 400 mg QD, Cycle 21, Day 1", "value": "−4.0 (7.9) score on a scale"}, {"measurement": "Change From Baseline in Overall Score on Lee cGvHD Symptom Scale, Mean (Standard Deviation)", "setting": "[2]; Cohort 3: 400 mg QD, Cycle 22, Day 1", "value": "−3.6 (5.0) score on a scale"}, {"measurement": "Change From Baseline in Overall Score on Lee cGvHD Symptom Scale, Mean (Standard Deviation)", "setting": "[2]; Cohort 3: 400 mg QD, Cycle 23, Day 1", "value": "−6.2 (7.7) score on a scale"}, {"measurement": "Change From Baseline in Overall Score on Lee cGvHD Symptom Scale, Mean (Standard Deviation)", "setting": "[2]; Cohort 3: 400 mg QD, Cycle 24, Day 1", "value": "−5.6 (5.7) score on a scale"}, {"measurement": "Change From Baseline in Overall Score on Lee cGvHD Symptom Scale, Mean (Standard Deviation)", "setting": "[2]; Cohort 3: 400 mg QD, Cycle 25, Day 1", "value": "−8.4 (3.4) score on a scale"}, {"measurement": "Change From Baseline in Overall Score on Lee cGvHD Symptom Scale, Mean (Standard Deviation)", "setting": "[2]; Cohort 3: 400 mg QD, Cycle 26, Day 1", "value": "0.2 (—) score on a scale"}, {"measurement": "Change From Baseline in Percent Predicted Forced Expiratory Volume in 1 Second (FEV1), Mean (Standard Deviation)", "setting": "[3]; [4]", "value": "−7.4 (10.6) percent predicted FEV1"}, {"measurement": "Change From Baseline in Percent Predicted Forced Expiratory Volume in 1 Second (FEV1), Mean (Standard Deviation)", "setting": "[3]; [5]", "value": "−4.3 (14.6) percent predicted FEV1"}, {"measurement": "Change From Baseline in Percent Predicted Forced Expiratory Volume in 1 Second (FEV1), Mean (Standard Deviation)", "setting": "[3]; [6]", "value": "2.0 (—) percent predicted FEV1"}, {"measurement": "Change From Baseline in Percent Predicted Forced Expiratory Volume in 1 Second (FEV1), Mean (Standard Deviation)", "setting": "[3]; [7]", "value": "−8.0 (7.1) percent predicted FEV1"}]}
